US20230270825A1, “STAPLED OLEFIN CO-AGONISTS OF THE GLUCAGON AND GLP-1 RECEPTORS” (Merck Sharp & Dohme LLC, priority 2019, published 2023)
At least one peptide structure holds a part that was inferred or is arguable (an end, a ring closure or a residue). Numbered stars: 1 amine (or outer) side, 2 acyl side, 3 side chain; on linkers, the order of the positions; unused ones are H or OH. Bridge positions count the residues as written; N and C are the ends. Square brackets hold non-standard residues; d marks the D form. Side chains are listed from the residue outwards. Peptide text beside a SMILES is read from it. * marks the point of attachment. ξ: configuration not given here. γGlu = O=C(O)[C@H](CCC(=O)[*:2])N[*:1]; Palmitoyl = CCCCCCCCCCCCCCCC(=O)*; S5 = C=CCCC[C@](C)(N)C(=O)O; ξS = NC(CO)C(=O)O

By UniProt entry, the sequences of proteins in these tests, tags left out. Residues count along the entry.
UniProt P47871, 26-477: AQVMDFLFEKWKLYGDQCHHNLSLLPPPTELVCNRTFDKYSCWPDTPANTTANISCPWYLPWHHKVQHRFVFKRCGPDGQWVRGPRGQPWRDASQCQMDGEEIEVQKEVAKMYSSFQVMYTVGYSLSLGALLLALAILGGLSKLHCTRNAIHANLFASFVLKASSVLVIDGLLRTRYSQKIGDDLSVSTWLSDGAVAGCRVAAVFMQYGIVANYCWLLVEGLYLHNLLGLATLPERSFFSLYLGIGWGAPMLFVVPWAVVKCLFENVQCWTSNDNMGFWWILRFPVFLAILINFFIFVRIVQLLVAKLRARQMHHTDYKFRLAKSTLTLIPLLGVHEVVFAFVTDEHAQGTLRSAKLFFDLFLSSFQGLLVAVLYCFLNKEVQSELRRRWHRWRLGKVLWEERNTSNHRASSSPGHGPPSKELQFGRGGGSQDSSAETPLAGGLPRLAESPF

Biological target: T1, human GCGR (Homo sapiens, UniProt P47871)
T1 construct: expressed in transfected cells; assay-ready frozen cells grown with Blasticidin and Hygromycin
Test: cAMP activity assay, cells expressing human GCGR (HitHunter cAMP XS)
Assay type: cell-based
Conditions: ratio of human GCGR EC50 to human GLP1R EC50
Method: Activity of the peptides at the Glucagon receptor (GCGR) and GLP-1 receptor (GLP1R) was measured in a cAMP activity assay.
Peptides were dissolved in 100% DMSO and serially diluted to generate 10 point titrations. The peptide solutions were then transferred into 384-well assay plates (150 nL/well).
Assay ready frozen cells expressing human GLP1R or human GCGR were suspended in growth media consisting of DMEM medium (GIBCO), 10% FBS (GIBCO), 1x NEAA(GIBCO), 1x P/S (GIBCO), 10ug/ml Blasticidin (GIBCO) and 200 µg/mL Hygromycin (GIBCO). Cells were then diluted in assay buffer consisting of PBS (GIBCO), 7.5% BSA (Perkin Elmer), 100 µM RO 20-1724 (Sigma), with or without 20% human serum (MP Biomedical). The cell suspensions (15 µL) were then added to the assay plates containing the peptide solutions (30,000 cells/well for human GCGR; 10.000 cells/well for human GLP1R). The cells were incubated for 1 hour at room temperature in the dark. Production of cAMP was determined using HitHunter™ cAMPXS kits (DiscoverX) following manufacturer protocol. The plates were incubated for overnight at room temperature in the dark. Luminescence was measured using an EnVision Multilabel plate reader (Perkin Elmer). Native GLP-1 and Glucagon (Bachem) are used as control peptides. EC50 values were calculated using uses a 4 parameter logistic fit based on the Levenberg-Marquardt algorithm.

Structure (SMILES): CCCCCCCCCCCCCCCC(=O)N[C@@H](CCC(=O)N[C@@H](CCC(=O)NCCCC[C@H](NC(=O)[C@H](CC(=O)O)NC(=O)[C@H](CO)NC(=O)[C@@H](NC(=O)[C@H](Cc1ccccc1)NC(=O)[C@@H](NC(=O)CNC(=O)[C@H](CCC(N)=O)NC(=O)C(CO)NC(=O)[C@@H](N)Cc1c[nH]cn1)[C@@H](C)O)[C@@H](C)O)C(=O)N[C@@H](CO)C(=O)N[C@@H](CCCCN)C(=O)N[C@@H](Cc1ccc(O)cc1)C(=O)N[C@@H](CC(C)C)C(=O)N[C@@H](CC(=O)O)C(=O)N[C@@H](CCC(=O)O)C(=O)N[C@@H](CCCNC(=N)N)C(=O)N[C@@H](C)C(=O)N[C@@H](C)C(=O)N[C@@]1(C)CCCC=CCCC[C@@](C)(C(=O)N[C@@H](Cc2c[nH]c3ccccc23)C(=O)N[C@@H](CC(C)C)C(=O)N[C@@H](CC(C)C)C(=O)N[C@@H](CC(=O)O)C(=O)N[C@H](C(N)=O)[C@@H](C)O)NC(=O)[C@H](C(C)C)NC(=O)[C@H](Cc2ccccc2)NC(=O)[C@H](CC(=O)O)NC1=O)C(=O)O)C(=O)O (stereo partly shown) [compound 12] (H-H[ξS]QGTFTSDK([γGlu-γGlu-Palmitoyl])SKYLDERAA[S5]DFV[S5]WLLDT-NH2; staple 20-24; N-terminus assumed)
- hGCGR/hGLP1R (hTone): 1.14
